These results are taken from PMC10219339.

Sequences of proteins named here, by UniProt entry; tags and fusion partners are left off. A change or cut given only in a name is not applied to a line headed by its entry.
UniProt P0A9A9: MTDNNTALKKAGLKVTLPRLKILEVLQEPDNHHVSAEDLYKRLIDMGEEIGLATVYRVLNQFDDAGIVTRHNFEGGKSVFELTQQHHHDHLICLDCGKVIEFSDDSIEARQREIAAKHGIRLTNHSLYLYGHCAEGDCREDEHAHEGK

For at least one entry, the source does not settle the construct or the ends of the probe.

This series concerns the target Fur (ferric uptake regulator), His-tagged (UniProt P0A9A9). In words: EMSA. The following applies: 200 uM CoCl2; 20 mM BisTris/borate pH 7.0, 40 mM KCl, 1 mM MgCl2, 200 uM CoCl2, 5% glycerol; 0.25 pmol DNA, 0-72 pmol Fur; 37 C, 15 min; 5% native PAGE; recombinant protein; probe letters rebuilt from the primers and the genome. For orientation: A gel shift assay detects complexes by their altered migration in electrophoresis.

“CAAGATCGGCTTGAAAGGTTTGCACGACATTCCTCCAGATTGTTTTTATCCCACAGCCACGTACTTCAGGGTAAGTACCTGAAAGTTACGGTCTGCGAACGCTATTCCACTGCTCCTTTATAGGTACAACAGTATAGTCTGATGGATAAGTCTGAAATTTGACGAGATCGATTTTTTTAGTGCGCAAGAGGGCTAAATTATCACTGAAGATGATTAATTTAATTACTAAACCATCAGATCGTGCTTTTTTTAGTCACTGCCCACCGCTGTTTGATTCCTGCGTAAAATTTGTCTCGCCGTCGCGTTGCGAGTAGACTTCGTGCCCTTGTCAAAAACTGGAGATTTAACTATGAGCGAAACGGCATCCTGGC (double strand) [PfrdA]”: the binding result is given as “binds”.

With “CTTCAGTGGATGTTGACATACTCATTGCTTACTCATCAAAAGTAGCGCCAGATTCACTGCTCTTCACGGCAGATGGACGCCACATCGATTCATGGGGAGGAATAAAAAAAACCTTACAATCACTGTAGAAATTCTTTTATACAGCTAATTGATGTGGTTTTTTACTCCTTTCTATAACCTTTTGTCAACTTTAACAAAAGTTTCTTCACATTAGTTTACATAATATCAACACCATTAGCATTTAATGCCCTTTCACCCCAGATCCTTGACGACTCCAGGATAATTAGATGTTGTTGAATCGTGTCCGTTGTGAAGCAATGGAAAAAATACGGGTCTATTTTGACAGGAATTTGTGTCGATTCCTCCCCCCAAAAGAGAG (double strand) [PnuoA]”, the binding result was “binds”.
